# Data as given in PubChem BioAssay AID1259327 (Drosophila RNAi Screening Center, 2017)
# Test: 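Data from controls in screens of zinc and manganese toxicity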
# System: Drosophila S2R+ cells
# Reagents: long dsRNA against Drosophila genes
# Duration: 5 days (water added on day 4, read one day later)
# Conditions: water added as vehicle, no metal, one day before read-out
# Measured: 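Total ATP measured by luciferase light, scaled to plate mean, duplicates averaged, then z-scored across plates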
# Scale: ATP z-score: higher = more total ATP than typical wells; ATP luminescence: higher = more total ATP
# Rule for the call: 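a hit is any knock-down whose absolute ATP z-score is greater than 1.5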
# Meaning of the calls: active = hit: ATP up or down; inactive = no clear ATP change
# This is a random part of about 3,100 reagents tested. 378 of all reagents (12%) count as active. 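Hits include both directions; z-score sign shows ATP rise or fall; raw luminescence values are not plate-normalised.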 A plus sign joins genes that one reagent is predicted to hit. Not stated in the record: the amount of reagent.
predicted target,DRSC id,"ATP z-score, duplicate mean","ATP luminescence, replicate 1 (RLU)","ATP luminescence, replicate 2 (RLU)",outcome
Pex13 (Peroxin 13),DRSC06877,0.212,7.85e5,7.21e5,inactive
Vha100-3 (Vacuolar H[+] ATPase 100kD subunit 3),DRSC05760,0.847,8.47e5,8.21e5,inactive
Vha100-3 (Vacuolar H[+] ATPase 100kD subunit 3),DRSC39558,-0.152,4.87e5,4.22e5,inactive
Ir7d (Ionotropic receptor 7d),DRSC18010,0.011,4.43e5,7.81e5,inactive
CG1824,DRSC19796,1.81,5.53e5,7.02e5,active
CG1824,DRSC39705,-0.0541,5.07e5,4.15e5,inactive
CG4928,DRSC19342,1.72,8.68e5,8.98e5,active
CG4928,DRSC29007,2.26,1.11e6,1.08e6,active
CG11703,DRSC14356,-0.0891,7.23e5,6.70e5,inactive
CG11703,DRSC26507,-0.204,9.22e5,1.11e6,inactive
GluRIIE (Glutamate receptor IIE),DRSC13431,-0.334,2.77e5,7.45e5,inactive
GluRIIE (Glutamate receptor IIE),DRSC39623,-1.46,3.48e5,3.86e5,inactive
CG7333,DRSC16229,-0.232,3.14e5,6.73e5,inactive
CG14691,DRSC14914,-1.43,2.32e5,6.14e5,inactive
CG14691,DRSC27957,1.02,7.42e5,8.67e5,inactive
Lerp (lysosomal enzyme receptor protein),DRSC14751,1.75,6.26e5,6.67e5,active
Lerp (lysosomal enzyme receptor protein),DRSC16030,1.7,6.17e5,7.95e5,active
Lerp (lysosomal enzyme receptor protein),DRSC16031,-0.512,5.53e5,1.05e6,inactive
Elk (Eag-like K[+] channel),DRSC07608,0.409,7.79e5,7.71e5,inactive
Elk (Eag-like K[+] channel),DRSC39479,2.38,6.99e5,5.26e5,active
CG31741,DRSC02887,-0.153,7.46e5,6.74e5,inactive
Agpat2 (1-Acylglycerol-3-phosphate O-acyltransferase 2),DRSC03532,-0.128,5.35e5,4.00e5,inactive
Agpat2 (1-Acylglycerol-3-phosphate O-acyltransferase 2),DRSC27901,0.854,8.43e5,9.23e5,inactive
tank,DRSC00461,-0.0505,7.30e5,7.11e5,inactive
kug (kugelei),DRSC10911,0.0615,7.18e5,7.58e5,inactive

7 entries from above in another layout:
Vha100-3 (Vacuolar H[+] ATPase 100kD subunit 3) [DRSC39558]
- ATP z-score, duplicate mean: -0.152
- ATP luminescence, replicate 1 (RLU): 4.87e5
- ATP luminescence, replicate 2 (RLU): 4.22e5
- outcome: inactive

Ir7d (Ionotropic receptor 7d) [DRSC18010]
- ATP z-score, duplicate mean: 0.011
- ATP luminescence, replicate 1 (RLU): 4.43e5
- ATP luminescence, replicate 2 (RLU): 7.81e5
- outcome: inactive

CG1824 [DRSC19796]
- ATP z-score, duplicate mean: 1.81
- ATP luminescence, replicate 1 (RLU): 5.53e5
- ATP luminescence, replicate 2 (RLU): 7.02e5
- outcome: active

CG1824 [DRSC39705]
- ATP z-score, duplicate mean: -0.0541
- ATP luminescence, replicate 1 (RLU): 5.07e5
- ATP luminescence, replicate 2 (RLU): 4.15e5
- outcome: inactive

CG4928 [DRSC19342]
- ATP z-score, duplicate mean: 1.72
- ATP luminescence, replicate 1 (RLU): 8.68e5
- ATP luminescence, replicate 2 (RLU): 8.98e5
- outcome: active

CG4928 [DRSC29007]
- ATP z-score, duplicate mean: 2.26
- ATP luminescence, replicate 1 (RLU): 1.11e6
- ATP luminescence, replicate 2 (RLU): 1.08e6
- outcome: active

CG11703 [DRSC14356]
- ATP z-score, duplicate mean: -0.0891
- ATP luminescence, replicate 1 (RLU): 7.23e5
- ATP luminescence, replicate 2 (RLU): 6.70e5
- outcome: inactive

More results follow:
predicted target,DRSC id,"ATP z-score, duplicate mean","ATP luminescence, replicate 1 (RLU)","ATP luminescence, replicate 2 (RLU)",outcome
CG42322,DRSC15112,-0.237,6.91e5,6.71e5,inactive
CG42322,DRSC15113,-0.774,2.19e5,7.93e5,inactive
pippin,DRSC04489,-0.0526,7.34e5,7.16e5,inactive
pippin,DRSC39700,-1.94,3.47e5,3.19e5,active
CG11655,DRSC19413,-1.62,5.07e5,6.98e5,active
Tret1-1 (Trehalose transporter 1-1),DRSC07046,0.452,6.55e5,6.66e5,inactive
Tret1-1 (Trehalose transporter 1-1),DRSC25701,-0.297,8.27e5,7.51e5,inactive
CG14606,DRSC12550,0.687,9.55e5,1.01e6,inactive
Cnx14D + Cnx99A,DRSC16610,1.62,6.19e5,6.95e5,active
ninaA (neither inactivation nor afterpotential A),DRSC00830,1.19,5.41e5,5.86e5,inactive
SLC5A11 (Sodium/solute co-transporter-like 5A11),DRSC03088,1.3,4.86e5,6.60e5,inactive
SLC5A11 (Sodium/solute co-transporter-like 5A11),DRSC39771,-1.1,4.23e5,3.79e5,inactive
stj (straightjacket),DRSC06124,-1.23,5.96e5,6.03e5,inactive
Karybeta3 (Karyopherin beta 3),DRSC12355,0.369,7.13e5,8.30e5,inactive
Karybeta3 (Karyopherin beta 3),DRSC39901,0.314,5.40e5,6.90e5,inactive
Sln (Silnoon),DRSC07133,0.702,6.59e5,7.08e5,inactive
Sln (Silnoon),DRSC24171,0.408,9.08e5,8.94e5,inactive
ics (icarus),DRSC29655,-0.0342,8.43e5,7.96e5,inactive
brv3 (brivido-3),DRSC25544,2.17,9.81e5,1.13e6,active
CG13794,DRSC02298,-1.14,6.09e5,6.01e5,inactive
CG13794,DRSC25419,-0.94,8.39e5,9.60e5,inactive
Tmtc2 (Transmembrane O-mannosyltransferase targeting cadherins 2),DRSC24987,-0.568,8.47e5,6.70e5,inactive
CG8405,DRSC07166,-0.421,5.08e5,6.55e5,inactive
CG8405,DRSC39857,0.155,6.52e5,5.37e5,inactive
prt (portabella),DRSC16894,-0.0797,3.29e5,6.68e5,inactive
prt (portabella),DRSC39457,-1.41,3.70e5,3.50e5,inactive
Gr39b (Gustatory receptor 39b),DRSC26464,-1.52,8.39e5,9.99e5,active
Gr39b (Gustatory receptor 39b),DRSC39892,1.3,6.73e5,7.19e5,inactive
Ddr (Discoidin domain receptor),DRSC02150,1.15,8.16e5,6.30e5,inactive
Ddr (Discoidin domain receptor),DRSC03229,-0.0126,7.28e5,7.21e5,inactive
Ddr (Discoidin domain receptor),DRSC22818,-1.69,4.12e5,4.61e5,active
GC (gamma-glutamyl carboxylase),DRSC08396,1.08,7.56e5,6.80e5,inactive
GC (gamma-glutamyl carboxylase),DRSC27222,-0.684,9.32e5,9.73e5,inactive
Polr3I (RNA polymerase III subunit I),DRSC19922,,7.31e5,7.08e5,inactive
Nup58 (Nucleoporin 58kD),DRSC16235,1.85,3.80e5,9.67e5,active
Nup58 (Nucleoporin 58kD),DRSC27863,1.15,9.62e5,9.91e5,inactive
CG11425,DRSC11657,0.31,9.48e5,9.25e5,inactive
CG11425,DRSC28400,-0.285,8.74e5,7.11e5,inactive
CG15614,DRSC06567,0.0177,5.25e5,7.18e5,inactive
CG3592,DRSC18315,1.23,7.09e5,7.58e5,inactive
CG3592,DRSC39849,-0.651,4.68e5,3.96e5,inactive
CG12746,DRSC12218,0.839,8.53e5,7.87e5,inactive
CG12746,DRSC36915,1.02,4.80e5,8.55e5,inactive
